EC50 data for one compound are collected here from patent US9920040B2, “GPR40 agonists for the treatment of type II diabetes” (Janssen Pharmaceutica NV, priority 2015, dated 2018).

The chains behind the UniProt entries cited, without tags or fusion partners.
UniProt O14842, whole entry: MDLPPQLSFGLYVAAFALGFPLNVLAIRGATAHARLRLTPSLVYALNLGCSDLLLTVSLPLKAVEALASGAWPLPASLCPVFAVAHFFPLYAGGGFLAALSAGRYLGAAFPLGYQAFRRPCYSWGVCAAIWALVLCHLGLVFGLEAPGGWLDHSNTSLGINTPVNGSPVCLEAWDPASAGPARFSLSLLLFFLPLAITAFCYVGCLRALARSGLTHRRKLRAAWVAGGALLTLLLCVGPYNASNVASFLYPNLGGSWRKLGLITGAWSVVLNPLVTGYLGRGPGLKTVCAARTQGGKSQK

The target in this test is human GPR40 (Homo sapiens, UniProt O14842). Briefly: GPR40 calcium flux assay, human GPR40. The settings on record: read-out: hGPR40 Ca^2+ Assay EC50; transfected HEK293 cells stably expressing human GPR40; multiple values = repeated testing. As to the method: Compounds were tested in a calcium flux assay using transfected HEK293 cells stably expressing either human GPR40 or rat GPR40. Human GPR40 expressing cells were cultured in DMEM-High Glucose media supplemented with 10% fetal bovine serum, 1×L-Glutamine, 1×Penicillin/Streptomycin and 500 μg/mL G418. Rat GPR40 expressing cells were cultured in DMEM-High Glucose media supplemented with 10% fetal bovine serum and 1 μg/mL puromycin. Cells were plated into poly-D-lysine coated 384-well plates and cultured overnight in a 37° C. humidified tissue culture incubator under 5% CO2/[…] atmosphere. On the day of the experiment, the culture media was replaced with assay buffer (HBSS, 20 mM HEPES, 0.1% BSA) and the cells incubated at 37° C. for 1 h. Calcium-sensitive fluorescent dye (Fluo 8 No-Wash Calcium Dye, ABD Bioquest) was then added and the cells incubated for another 30 min at 37° C. followed by 15 min at room temperature while protected from the light. The cell plate and a plate of diluted compounds of Formula (I) were loaded into a fluorescent plate reader that added compounds onto the cells while measuring the fluorescence intensity of each well. The plate reader recorded fluorescence intensity at 1 second intervals for 8 min and provided the data for analysis in an Excel format. EC50 values were calculated using Prism (GraphPad) software.
In general terms: Calcium flux is commonly read through the fluorescence of an indicator in the cells.

pEC50: −log10 of the molar value. “And” between values parts separate entries of the source, which are not always exact repeats. Identical values can stand only once. The structures given here were assigned with low confidence; some may be wrong.

In general, pEC50 refers to −log10 of the EC50, conventionally taken in molar units.

In the case of `CC1(C)CCC=C1c1c(COc2cccc([C@@H](CC(=O)O)C3CC3)c2)csc1-c1cc(C#N)ccc1F`, the pEC50 was 6.94 and 7.04.
